# Measurements: PubChem BioAssay AID1487 (National Center for Advancing Translational Sciences (NCATS), 2009)
# The other results are listed elsewhere or left out. Shown are side measurements of this screen, not its main read-out; they come without a call. Most of these compounds were active or inconclusive in the main read-out, so they are no random draw. Potencies come from curve fits of mixed quality, noted in brackets.
# Experiment: qHTS Assay for Modulators of Lamin A Splicing
# Details: HeLa LMNA splicing GFP/RFP minigene ratio, 48 h
# Method in brief: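 Read-out is the ratio of GFP to DsRed2 object intensity, acquired by 488 nm laser-scanning cytometry on HeLa lamin A-EGFP minigene reporter cells. Compound incubation 48 hrs at 37 °C in Opti-MEM with 2% FBS; DMSO 0.5% final.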
# [1] = measured here: GFP splicing reporter channel
# [2] = measured here: RFP viability control channel
compound,measurement,setting,value
CC(NC(=O)CN(C1CCCCC1)S(C)(=O)=O)c1ccccc1 (configuration not stated),AC50,[1],"35.5 µM [falling, single point]"
O=C(CCl)Nc1cccc(S(=O)(=O)N2CCCCCC2)c1,AC50,[1],"35.5 µM [falling, single point]"
same,AC50,[2],"14.1 µM [falling, single point]"
CCC1(CC)NC(=O)N(CC(=O)N2N=C(c3ccc(Cl)cc3)CC2c2ccco2)C1=O (configuration not stated),AC50,[1],"10 µM [falling, single point]"
C/C(=N\NC(=O)CSc1nc(C)cc(C)n1)c1ccc2c(c1)OCCO2,AC50,[1],"0.562 µM [rising, full curve, poor fit]"
same,AC50,[2],"1 µM [rising, single point]"
COc1cc(N[C@@H](C)CCCN)c2ncccc2c1,AC50,[1],"0.02 µM [falling, full curve]"
same,AC50,[2],"0.00891 µM [falling, full curve]"
O=C(c1cc2ccccc2oc1=O)N1CCN(c2ccc(N3CCOCC3)nn2)CC1,AC50,[1],"1.12 µM [falling, full curve]"
same,AC50,[2],"1.26 µM [falling, full curve, poor fit]"
O=C(NCCCl)c1ccc(OCc2ccccc2)cc1Cl,AC50,[1],"0.794 µM [rising, full curve, poor fit]"
COc1ccc(C(=O)/C=C/c2ccc(OC3CSC3)cc2)cc1,AC50,[1],"35.5 µM [falling, single point]"
same,AC50,[2],"3.98 µM [rising, single point]"
O=C(c1ccc(N2C(=O)C3C4c5ccccc5C(c5ccccc54)C3C2=O)cc1)N1CCOCC1 (configuration not stated),AC50,[1],"4.47 µM [rising, partial curve]"
Cc1ccc(-c2nc(CN(Cc3cnn(C)c3)C(C)C)c(C)o2)o1,AC50,[2],"0.0562 µM [falling, partial curve, poor fit]"
COc1ccc(CNC(=O)Cn2c(SCC(=O)Nc3ccc(OC)cc3)nc3ccccc32)cc1,AC50,[1],"35.5 µM [falling, single point]"
same,AC50,[2],"35.5 µM [falling, single point]"
COc1cccc(NC(=O)NCCCSC2CCCCC2)c1,AC50,[1],"10 µM [rising, partial curve]"
same,AC50,[2],"12.6 µM [rising, partial curve]"
COc1ccc(CCC(=O)OCC(=O)c2ccc(C)cc2)cc1,AC50,[1],"0.0631 µM [rising, full curve, poor fit]"
same,AC50,[2],"10 µM [rising, partial curve, poor fit]"
COCCN1CCN(c2cc(-c3ccccc3)nc3cc(-c4cccc(F)c4)nn23)CC1,AC50,[2],"7.08 µM [rising, partial curve]"
COc1ccc2c(=O)c(-c3ccc4c(c3)OCO4)coc2c1,AC50,[2],"12.6 µM [rising, single point]"
CC(=O)Nc1ccc(S(=O)(=O)NCc2ccc(C)cc2)cc1,AC50,[2],"14.1 µM [rising, single point]"
COc1ccc(C(C)C)cc1S(=O)(=O)N1CCN(c2ccccc2)CC1,AC50,[1],"20 µM [rising, partial curve, poor fit]"
CC(=O)c1c(C)[nH]c(C(=O)CSc2nnc(-c3ccccc3)o2)c1C,AC50,[1],"2.24 µM [rising, full curve]"
same,AC50,[2],"3.55 µM [rising, full curve]"
O=C1c2cccc(OCc3ccc(F)cc3)c2CCN1Cc1ccc(F)cc1,AC50,[2],"12.6 µM [rising, partial curve, poor fit]"
Cc1ccc2nsnc2c1S(=O)(=O)NCc1ccncc1,AC50,[2],"35.5 µM [rising, single point]"
O=C(/C=C/c1ccc2c(c1)OCO2)NCCCN1CCOCC1,AC50,[2],"35.5 µM [rising, single point]"
Cc1ccc(C)c(OCC(=O)NCCNC(=O)COc2cc(C)ccc2C)c1,AC50,[2],"17.8 µM [rising, single point]"
CN(Cc1ccco1)c1ccnc(-c2cccc(NS(C)(=O)=O)c2)n1,AC50,[1],"12.6 µM [rising, single point]"
CCN(CC(=O)Nc1ccccc1OC)CC(=O)Nc1c(Cl)ccc(C)c1Cl,AC50,[1],"0.141 µM [rising, full curve, poor fit]"
Cc1cccc(N2C(=O)N(CC(=O)C(C)(C)C)c3ccccc3S2(=O)=O)c1C,AC50,[1],"0.891 µM [falling, full curve, poor fit]"
CC1(C)Cc2c(sc3nnn(Cc4ccccc4)c(=O)c23)CO1,AC50,[1],"11.2 µM [rising, partial curve]"
same,AC50,[2],"15.8 µM [rising, partial curve]"
Nc1nc(O)c2ncn([C@H]3CC[C@@H](CO)O3)c2n1,AC50,[2],"0.0891 µM [falling, full curve, poor fit]"
COc1ccc(OCC(=O)NCc2ccc3c(c2)CCN3C(=O)c2ccccc2)cc1,AC50,[2],"17.8 µM [rising, single point]"
COc1ccccc1N1CCN(c2ncnc3c2cnn3-c2cc(Cl)ccc2C)CC1,AC50,[1],"35.5 µM [falling, single point]"
same,AC50,[2],"20 µM [falling, partial curve, poor fit]"
COc1ccccc1N1CCN(C(=O)c2ccc3[nH]c4c(c3c2)CCCC4)CC1,AC50,[2],"25.1 µM [rising, single point]"
Cc1nnc(SCc2cnc(-c3ccc(C(C)C)cc3)s2)n1C,AC50,[2],"31.6 µM [rising, single point]"
CC(C)C(=O)NC(c1ccc([N+](=O)[O-])cc1)c1c(O)ccc2ccccc12 (configuration not stated),AC50,[1],"35.5 µM [falling, single point]"
same,AC50,[2],"14.1 µM [falling, partial curve]"
CC(C)NC[C@@H](O)COc1ccc(COCCOC(C)C)cc1,AC50,[1],"0.447 µM [falling, single point]"
COc1ccc(OCc2ccc(-c3nc4ccccc4c(=O)n3N)o2)cc1,AC50,[1],"12.6 µM [rising, single point]"
O=C(NC[C@@H](O)CO)c1c(I)c(C(=O)NC[C@@H](O)CO)c(I)c(N(CCO)C(=O)CO)c1I,AC50,[1],"7.94 µM [rising, single point]"
same,AC50,[2],"0.02 µM [falling, full curve, poor fit]"
Cc1nn2c(-c3ccncc3)ccnc2c1Br,AC50,[2],"0.01 µM [falling, full curve, poor fit]"
Cc1ccc(N2CCN(c3ccc(NCc4nc5ccccc5n4C)cc3)CC2)cc1,AC50,[2],"15.8 µM [rising, single point]"
Cc1ccc(CSc2nc3ccc(NC(=O)COc4ccccc4)cc3s2)cc1,AC50,[1],"20 µM [falling, partial curve, poor fit]"
same,AC50,[2],"1.41 µM [falling, full curve, poor fit]"
CC(=O)c1cn(N(C)c2ncc(C(F)(F)F)cc2Cl)c(=O)[nH]c1=O,AC50,[2],"10 µM [falling, partial curve]"
FC(F)(F)c1ccc(N=Cc2sc(N3CCOCC3)nc2-c2ccccc2)cc1,AC50,[2],"14.1 µM [rising, single point]"
CCOc1ccc(NC(=O)CSC2=Nc3ccccc3C3=NC(CCC(=O)NCc4ccccc4)C(=O)N23)cc1 (configuration not stated),AC50,[2],"35.5 µM [falling, single point]"
Cc1cc(N/N=C/c2c(O)ccc3ccccc23)nc(-c2ccccc2O)n1,AC50,[2],"12.6 µM [rising, single point]"
CCNc1nc(NC(C)C)nc(SCCOC(=O)c2ccccc2)n1,AC50,[1],"12.6 µM [rising, single point]"
same,AC50,[2],"35.5 µM [rising, single point]"
Cc1ccc(CNC(=O)c2ccc3c(c2)nc(C)n3-c2cccc(F)c2)cc1,AC50,[1],"35.5 µM [falling, single point]"
same,AC50,[2],"35.5 µM [falling, partial curve, poor fit]"
O=C(Nc1nccs1)c1ccc(-c2ccc([N+](=O)[O-])cc2)o1,AC50,[1],"5.62 µM [rising, partial curve, poor fit]"
same,AC50,[2],"6.31 µM [rising, partial curve, poor fit]"
COc1ccc2ccccc2c1CN1CCN(C(=O)c2ccccc2)CC1,AC50,[1],"12.6 µM [rising, single point]"
same,AC50,[2],"22.4 µM [rising, single point]"
Cc1ccc(S(=O)(=O)NC(N)=NCCc2ccc(Cl)cc2)cc1C,AC50,[1],"31.6 µM [rising, single point]"
same,AC50,[2],"22.4 µM [rising, single point]"
CCOc1cc(Br)ccc1S(=O)(=O)NCc1ccccc1,AC50,[1],"22.4 µM [rising, single point]"
same,AC50,[2],"22.4 µM [rising, single point]"
CCCCCNC(=O)c1cccnc1SCC(=O)Nc1ccccc1OC,AC50,[2],"14.1 µM [rising, single point]"
COc1ccc2[nH]cc(CCNc3ncncc3-c3ccccc3OC)c2c1,AC50,[1],"7.94 µM [falling, partial curve]"
O=C(Nc1ccc(Br)cc1)c1ccc(F)c(S(=O)(=O)NCc2cccs2)c1,AC50,[2],"3.16 µM [rising, single point]"
CCOC(=O)N1CCN(C(=O)CN(c2cccc(C)c2)S(=O)(=O)c2ccccc2)CC1,AC50,[1],"5.62 µM [rising, single point]"
same,AC50,[2],"6.31 µM [rising, single point]"
CCN(c1ccccc1)S(=O)(=O)c1cc(C(=O)Nc2ccc(F)c(F)c2)ccc1F,AC50,[1],"35.5 µM [rising, single point]"
same,AC50,[2],"8.91 µM [rising, partial curve, poor fit]"
S=C(NCCSCc1ccc(Cl)cc1)Nc1ccccc1,AC50,[2],"11.2 µM [falling, single point]"
Cc1ccccc1C(=O)Nc1ccc(OCc2cc(=O)n3cccc(C)c3n2)cc1,AC50,[1],"35.5 µM [rising, partial curve, poor fit]"

# Quoted from the entries so far (2 entries):
compound,measurement,setting,value
FC(F)(F)c1ccc(N=Cc2sc(N3CCOCC3)nc2-c2ccccc2)cc1,AC50,[2],"14.1 µM [rising, single point]"
CCOc1ccc(NC(=O)CSC2=Nc3ccccc3C3=NC(CCC(=O)NCc4ccccc4)C(=O)N23)cc1 (configuration not stated),AC50,[2],"35.5 µM [falling, single point]"
